The target in this assay is T1, interferon regulatory factor 9 (human (endogenous in SK-N-SH)), Q00978.
T1 chain: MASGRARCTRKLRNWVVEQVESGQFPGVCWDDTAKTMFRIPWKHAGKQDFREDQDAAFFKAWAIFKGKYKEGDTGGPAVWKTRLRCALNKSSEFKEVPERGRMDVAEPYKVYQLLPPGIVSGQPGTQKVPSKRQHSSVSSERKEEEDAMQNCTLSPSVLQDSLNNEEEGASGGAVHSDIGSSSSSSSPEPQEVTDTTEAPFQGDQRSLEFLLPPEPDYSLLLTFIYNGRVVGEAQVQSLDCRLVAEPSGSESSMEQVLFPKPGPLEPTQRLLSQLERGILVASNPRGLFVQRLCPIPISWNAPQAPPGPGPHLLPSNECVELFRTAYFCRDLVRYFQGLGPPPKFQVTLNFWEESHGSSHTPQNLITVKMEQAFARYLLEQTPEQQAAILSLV
In words: co-IP; SK-N-SH cells; anti-IRF9, anti-STAT1 and anti-STAT2 used for co-IP, precipitates detected by immunoblotting, IgG as negative control; control cells and cells with PTBP2 knockdown or overexpression, STAT1 or STAT2 siRNA. The note with it: remark: other sources report otherwise. A general note: A western blot detects proteins with antibodies after separation by electrophoresis.

Results are given in words; binding and its absence hold for the method and conditions named. In cells and extracts the contact can be indirect. Some binding calls cover weakened binding; strength is not graded here.

B1: signal transducers and activators of transcription 1, P42224 1-750 (protein)
chain: MSQWYELQQLDSKFLEQVHQLYDDSFPMEIRQYLAQWLEKQDWEHAANDVSFATIRFHDLLSQLDDQYSRFSLENNFLLQHNIRKSKRNLQDNFQEDPIQMSMIIYSCLKEERKILENAQRFNQAQSGNIQSTVMLDKQKELDSKVRNVKDKVMCIEHEIKSLEDLQDEYDFKCKTLQNREHETNGVAKSDQKQEQLLLKKMYLMLDNKRKEVVHKIIELLNVTELTQNALINDELVEWKRRQQSACIGGPPNACLDQLQNWFTIVAESLQQVRQQLKKLEELEQKYTYEHDPITKNKQVLWDRTFSLFQQLIQSSFVVERQPCMPTHPQRPLVLKTGVQFTVKLRLLVKLQELNYNLKVKVLFDKDVNERNTVKGFRKFNILGTHTKVMNMEESTNGSLAAEFRHLQLKEQKNAGTRTNEGPLIVTEELHSLSFETQLCQPGLVIDLETTSLPVVVISNVSQLPSGWASILWYNMLVAEPRNLSFFLTPPCARWAQLSEVLSWQFSSVTKRGLNVDQLNMLGEKLLGPNASPDGLIPWTRFCKENINDKNFPFWLWIESILELIKKHLLPLWNDGCIMGFISKERERALLKDQQPGTFLLRFSESSREGAITFTWVERSQNGGEPDFHAVEPYTKKELSAVTFPDIIRNYKVMAAENIPENPLKYLYPNIDKDHAFGKYYSRPKEAPEPMELDGPKGTGYIKTELISVSEVHPSRLQTTDNLLPMSPEEFDEVSRIVGSVEFDSMMNTV
In the case of B1, the binding entry is “binds”.
